Reference: the supplement of paper PMC10060354, “Discovery of a small molecule ligand of FRS2 that inhibits invasion and tumor growth” (Cellular Oncology, 2022)
Repeats are few or missing, and single values can be far off.

Sequences of proteins named here, by UniProt entry; tags and fusion partners are left off. A change or cut given only in a name is not applied to a line headed by its entry.
UniProt Q96D31, whole entry, looked up: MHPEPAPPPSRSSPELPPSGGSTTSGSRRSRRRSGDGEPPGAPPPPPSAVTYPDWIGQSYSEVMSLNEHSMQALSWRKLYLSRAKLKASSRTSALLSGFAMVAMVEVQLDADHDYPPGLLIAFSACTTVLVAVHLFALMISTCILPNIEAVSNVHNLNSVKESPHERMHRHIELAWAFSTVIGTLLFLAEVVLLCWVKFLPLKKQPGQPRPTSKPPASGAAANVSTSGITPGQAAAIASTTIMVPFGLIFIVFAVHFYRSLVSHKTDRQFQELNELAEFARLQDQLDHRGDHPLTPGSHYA
UniProt A5YKK6, whole entry: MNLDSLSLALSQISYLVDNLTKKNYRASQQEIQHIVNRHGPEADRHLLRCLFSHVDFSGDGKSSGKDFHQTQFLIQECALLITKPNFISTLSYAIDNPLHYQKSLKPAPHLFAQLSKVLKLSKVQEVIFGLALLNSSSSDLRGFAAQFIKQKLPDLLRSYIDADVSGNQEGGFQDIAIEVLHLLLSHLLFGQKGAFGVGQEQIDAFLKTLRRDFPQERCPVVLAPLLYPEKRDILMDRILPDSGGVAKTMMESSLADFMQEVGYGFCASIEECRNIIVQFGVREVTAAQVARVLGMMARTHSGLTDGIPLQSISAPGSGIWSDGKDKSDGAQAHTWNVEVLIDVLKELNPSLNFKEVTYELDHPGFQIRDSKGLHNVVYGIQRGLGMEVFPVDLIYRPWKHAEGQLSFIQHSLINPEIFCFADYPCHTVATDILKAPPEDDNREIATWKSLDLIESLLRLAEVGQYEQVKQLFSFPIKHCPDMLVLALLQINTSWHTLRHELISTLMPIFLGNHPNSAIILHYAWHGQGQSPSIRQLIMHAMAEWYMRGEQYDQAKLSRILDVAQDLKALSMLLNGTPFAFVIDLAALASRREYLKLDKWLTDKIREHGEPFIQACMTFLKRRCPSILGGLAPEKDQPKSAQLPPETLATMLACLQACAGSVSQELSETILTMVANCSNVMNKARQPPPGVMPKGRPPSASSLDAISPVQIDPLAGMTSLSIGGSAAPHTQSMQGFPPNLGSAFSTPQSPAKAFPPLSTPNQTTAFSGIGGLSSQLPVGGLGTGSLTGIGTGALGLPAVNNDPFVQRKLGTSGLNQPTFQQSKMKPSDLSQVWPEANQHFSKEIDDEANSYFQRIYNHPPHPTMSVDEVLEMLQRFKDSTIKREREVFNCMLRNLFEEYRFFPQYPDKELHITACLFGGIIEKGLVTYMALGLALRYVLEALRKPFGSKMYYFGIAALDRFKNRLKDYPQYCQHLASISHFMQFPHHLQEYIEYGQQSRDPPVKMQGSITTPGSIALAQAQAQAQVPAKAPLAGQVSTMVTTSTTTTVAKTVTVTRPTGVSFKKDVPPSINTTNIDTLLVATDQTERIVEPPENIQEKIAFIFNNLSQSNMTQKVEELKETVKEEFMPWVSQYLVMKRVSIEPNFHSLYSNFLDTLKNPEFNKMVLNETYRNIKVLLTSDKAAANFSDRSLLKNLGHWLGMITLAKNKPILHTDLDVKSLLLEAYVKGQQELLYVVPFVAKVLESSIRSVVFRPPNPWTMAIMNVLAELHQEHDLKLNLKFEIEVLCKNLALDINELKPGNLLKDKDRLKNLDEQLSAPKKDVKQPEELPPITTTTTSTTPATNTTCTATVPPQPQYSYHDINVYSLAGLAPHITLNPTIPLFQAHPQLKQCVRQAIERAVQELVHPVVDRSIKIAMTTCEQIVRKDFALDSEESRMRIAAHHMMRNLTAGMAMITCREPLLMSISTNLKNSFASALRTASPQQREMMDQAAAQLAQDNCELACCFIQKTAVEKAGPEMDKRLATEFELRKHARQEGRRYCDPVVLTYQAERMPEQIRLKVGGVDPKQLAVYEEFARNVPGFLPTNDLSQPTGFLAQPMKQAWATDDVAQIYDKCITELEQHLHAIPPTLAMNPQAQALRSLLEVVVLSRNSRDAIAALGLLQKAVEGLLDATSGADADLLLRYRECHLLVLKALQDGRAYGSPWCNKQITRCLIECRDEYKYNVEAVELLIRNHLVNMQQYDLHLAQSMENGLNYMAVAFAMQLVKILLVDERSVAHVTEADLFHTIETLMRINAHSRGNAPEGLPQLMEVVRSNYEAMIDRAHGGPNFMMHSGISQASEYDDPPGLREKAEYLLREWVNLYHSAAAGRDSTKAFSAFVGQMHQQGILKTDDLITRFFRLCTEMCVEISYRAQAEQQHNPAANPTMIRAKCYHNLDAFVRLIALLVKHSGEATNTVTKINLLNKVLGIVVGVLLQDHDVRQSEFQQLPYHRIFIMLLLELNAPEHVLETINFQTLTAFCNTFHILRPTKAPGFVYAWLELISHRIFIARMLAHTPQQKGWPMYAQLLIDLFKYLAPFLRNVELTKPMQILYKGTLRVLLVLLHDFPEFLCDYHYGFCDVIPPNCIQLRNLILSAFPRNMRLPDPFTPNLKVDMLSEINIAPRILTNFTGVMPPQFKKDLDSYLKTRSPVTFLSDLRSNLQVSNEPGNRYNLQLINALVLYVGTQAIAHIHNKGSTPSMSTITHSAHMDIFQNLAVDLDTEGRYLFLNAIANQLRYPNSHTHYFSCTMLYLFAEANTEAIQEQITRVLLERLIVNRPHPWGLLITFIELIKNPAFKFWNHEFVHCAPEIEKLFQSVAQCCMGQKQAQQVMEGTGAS
UniProt Q99460, whole entry: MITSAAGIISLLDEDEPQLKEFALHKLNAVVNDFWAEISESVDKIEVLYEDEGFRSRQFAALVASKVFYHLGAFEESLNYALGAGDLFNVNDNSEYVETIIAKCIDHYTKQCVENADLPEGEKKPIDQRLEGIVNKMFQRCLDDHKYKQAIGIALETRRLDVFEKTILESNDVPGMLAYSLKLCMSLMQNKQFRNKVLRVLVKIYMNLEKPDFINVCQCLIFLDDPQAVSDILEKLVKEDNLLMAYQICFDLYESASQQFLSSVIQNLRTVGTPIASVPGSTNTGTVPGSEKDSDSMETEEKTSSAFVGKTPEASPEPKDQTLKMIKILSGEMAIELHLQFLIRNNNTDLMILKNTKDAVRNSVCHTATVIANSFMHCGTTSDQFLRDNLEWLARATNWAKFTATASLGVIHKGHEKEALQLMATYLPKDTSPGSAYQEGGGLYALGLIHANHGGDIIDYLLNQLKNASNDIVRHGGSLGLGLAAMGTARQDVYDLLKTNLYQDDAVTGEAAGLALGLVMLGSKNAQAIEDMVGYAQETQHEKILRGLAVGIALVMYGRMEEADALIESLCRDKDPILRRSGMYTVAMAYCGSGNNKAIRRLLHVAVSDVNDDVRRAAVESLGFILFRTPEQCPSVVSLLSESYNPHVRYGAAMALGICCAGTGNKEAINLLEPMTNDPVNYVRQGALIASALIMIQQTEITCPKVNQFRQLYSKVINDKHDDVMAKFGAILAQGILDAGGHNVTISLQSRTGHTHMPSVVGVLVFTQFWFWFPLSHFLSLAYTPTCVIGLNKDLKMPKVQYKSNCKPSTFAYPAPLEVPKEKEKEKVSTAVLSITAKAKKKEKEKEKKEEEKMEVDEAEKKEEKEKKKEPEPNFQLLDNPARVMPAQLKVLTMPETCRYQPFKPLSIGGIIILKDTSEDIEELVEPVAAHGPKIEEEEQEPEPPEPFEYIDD
UniProt P56937: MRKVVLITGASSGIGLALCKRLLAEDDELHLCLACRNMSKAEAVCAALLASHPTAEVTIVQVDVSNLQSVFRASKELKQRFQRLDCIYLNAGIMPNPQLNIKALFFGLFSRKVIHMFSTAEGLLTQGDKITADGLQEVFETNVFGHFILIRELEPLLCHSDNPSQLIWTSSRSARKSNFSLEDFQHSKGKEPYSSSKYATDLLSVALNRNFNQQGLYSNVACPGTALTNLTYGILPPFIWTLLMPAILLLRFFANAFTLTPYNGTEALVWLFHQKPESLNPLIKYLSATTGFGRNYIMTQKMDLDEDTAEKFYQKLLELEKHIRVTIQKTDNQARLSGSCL
UniProt Q9H0F7: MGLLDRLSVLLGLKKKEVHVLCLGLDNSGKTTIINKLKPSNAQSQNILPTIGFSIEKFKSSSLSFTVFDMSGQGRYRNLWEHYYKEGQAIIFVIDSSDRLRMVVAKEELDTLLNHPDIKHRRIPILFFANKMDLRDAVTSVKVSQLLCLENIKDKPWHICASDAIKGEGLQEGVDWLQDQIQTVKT
UniProt Q9H427: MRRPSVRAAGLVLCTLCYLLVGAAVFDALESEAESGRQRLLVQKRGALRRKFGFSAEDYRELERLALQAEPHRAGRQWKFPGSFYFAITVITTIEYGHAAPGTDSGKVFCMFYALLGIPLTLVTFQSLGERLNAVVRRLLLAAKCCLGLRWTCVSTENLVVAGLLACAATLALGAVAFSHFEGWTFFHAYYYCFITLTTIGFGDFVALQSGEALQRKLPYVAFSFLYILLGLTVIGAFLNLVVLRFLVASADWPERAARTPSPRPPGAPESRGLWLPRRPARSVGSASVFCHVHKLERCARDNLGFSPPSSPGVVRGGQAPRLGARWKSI
UniProt Q8WWY3: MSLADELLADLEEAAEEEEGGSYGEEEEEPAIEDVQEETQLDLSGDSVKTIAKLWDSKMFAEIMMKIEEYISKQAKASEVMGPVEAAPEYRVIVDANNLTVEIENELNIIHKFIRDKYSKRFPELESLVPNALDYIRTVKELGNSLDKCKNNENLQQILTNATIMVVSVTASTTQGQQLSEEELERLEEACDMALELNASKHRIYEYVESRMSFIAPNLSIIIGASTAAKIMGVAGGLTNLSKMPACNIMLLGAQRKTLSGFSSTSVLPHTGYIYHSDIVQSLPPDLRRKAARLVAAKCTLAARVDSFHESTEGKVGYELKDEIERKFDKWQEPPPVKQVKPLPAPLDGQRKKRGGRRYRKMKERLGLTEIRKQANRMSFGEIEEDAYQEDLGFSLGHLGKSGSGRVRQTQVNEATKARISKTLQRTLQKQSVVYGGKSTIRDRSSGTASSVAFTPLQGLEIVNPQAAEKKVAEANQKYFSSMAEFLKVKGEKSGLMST
UniProt O14976: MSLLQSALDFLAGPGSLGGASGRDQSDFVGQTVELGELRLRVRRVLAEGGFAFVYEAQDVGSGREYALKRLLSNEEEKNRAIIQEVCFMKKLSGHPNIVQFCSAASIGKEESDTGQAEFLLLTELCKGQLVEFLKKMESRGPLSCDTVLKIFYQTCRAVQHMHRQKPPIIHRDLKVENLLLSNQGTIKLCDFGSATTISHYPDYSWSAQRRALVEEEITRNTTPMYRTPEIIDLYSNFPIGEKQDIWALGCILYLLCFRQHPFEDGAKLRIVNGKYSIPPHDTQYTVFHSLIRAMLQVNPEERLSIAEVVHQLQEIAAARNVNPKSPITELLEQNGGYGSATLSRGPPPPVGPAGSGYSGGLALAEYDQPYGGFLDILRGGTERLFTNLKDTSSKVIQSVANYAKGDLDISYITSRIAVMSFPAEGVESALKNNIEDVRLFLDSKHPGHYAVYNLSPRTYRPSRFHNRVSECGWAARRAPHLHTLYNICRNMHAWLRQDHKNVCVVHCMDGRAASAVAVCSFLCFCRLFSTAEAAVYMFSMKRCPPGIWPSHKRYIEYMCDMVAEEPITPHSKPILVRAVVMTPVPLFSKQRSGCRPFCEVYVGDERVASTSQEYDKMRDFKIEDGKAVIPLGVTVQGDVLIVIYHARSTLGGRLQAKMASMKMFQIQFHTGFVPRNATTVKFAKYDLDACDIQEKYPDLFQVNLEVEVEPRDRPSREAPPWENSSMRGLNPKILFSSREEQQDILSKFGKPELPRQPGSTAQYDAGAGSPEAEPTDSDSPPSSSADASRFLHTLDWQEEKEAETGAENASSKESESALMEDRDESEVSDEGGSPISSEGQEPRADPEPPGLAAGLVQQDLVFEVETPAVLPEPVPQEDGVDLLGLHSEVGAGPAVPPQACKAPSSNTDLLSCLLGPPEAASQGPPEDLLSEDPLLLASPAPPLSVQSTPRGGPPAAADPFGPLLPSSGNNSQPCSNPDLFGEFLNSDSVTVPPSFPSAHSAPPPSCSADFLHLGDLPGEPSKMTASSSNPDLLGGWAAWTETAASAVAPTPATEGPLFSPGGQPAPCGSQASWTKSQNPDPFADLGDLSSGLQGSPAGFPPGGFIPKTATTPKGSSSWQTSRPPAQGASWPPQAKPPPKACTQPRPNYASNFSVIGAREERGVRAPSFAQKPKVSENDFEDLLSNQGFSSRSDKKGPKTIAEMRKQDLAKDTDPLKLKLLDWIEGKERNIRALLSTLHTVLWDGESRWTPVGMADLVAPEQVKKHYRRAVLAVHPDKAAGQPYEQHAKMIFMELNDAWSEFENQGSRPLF
UniProt P08579, whole entry: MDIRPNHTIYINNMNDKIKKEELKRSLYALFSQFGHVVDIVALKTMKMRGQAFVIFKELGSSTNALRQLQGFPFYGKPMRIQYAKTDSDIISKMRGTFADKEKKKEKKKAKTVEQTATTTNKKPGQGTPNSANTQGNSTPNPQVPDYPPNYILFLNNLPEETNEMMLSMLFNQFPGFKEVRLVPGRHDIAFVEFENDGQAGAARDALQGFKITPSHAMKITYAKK

Compound: [O-][N+](C(C1=C(C(O)=C2)NC(C(C=C3)=CC=C3Cl)C4C1C=CC4)=C2Cl)=O
Assay: melting temperature shift (compound 7 minus DMSO); higher = compound stabilises the protein
Conditions: 10 µM
Protocol: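 Thermal proteome profiling (TMT mass spectrometry) in intact DAOY medulloblastoma cells or DAOY lysates treated with 10 µM compound 7 or DMSO, heated at 10 temperatures from 40.5 to 73.8 °C for 3 min. Melting curves were fitted with the Bioconductor TPP package, and the melting point difference between compound and vehicle is reported per protein (single curve per condition).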

[1] = system: DAOY cell lysate, treatment time: 20 min, 4 °C
[2] = system: intact DAOY cells, treatment time: 90 min, 37 °C

With ARHGAP18 (UniProt Q8N392) the melting temperature shift [1] was -0.287 °C and the melting temperature shift [2] was -1.27 °C.

KCMF1 (UniProt Q9P0J7) showed a melting temperature shift [1] of 0.24 °C and a melting temperature shift [2] of 0.492 °C.

For RPL37 (UniProt P61927), the melting temperature shift [1] was 0.867 °C and the melting temperature shift [2] was -0.337 °C.

With CETN2 (UniProt P41208) the melting temperature shift [1] was -1.09 °C.

UniProt P05787 showed a melting temperature shift [1] of -1.47 °C and a melting temperature shift [2] of 2.17 °C.

Work on SHCBP1 (UniProt Q8NEM2) yielded a melting temperature shift [1] of -0.647 °C and a melting temperature shift [2] of 0.609 °C.

For PAPSS1 (UniProt O43252), the melting temperature shift [1] was -0.256 °C and the melting temperature shift [2] was -0.429 °C.

Target UniProt O15213 has a melting temperature shift [1] of 1.02 °C.

For WDR1 (UniProt O75083), the melting temperature shift [1] was -0.225 °C and the melting temperature shift [2] was 1.17 °C.

For RBM25 (UniProt P49756), the melting temperature shift [1] was -0.209 °C and the melting temperature shift [2] was -1.09 °C.

For BZW2 (UniProt Q9Y6E2), the melting temperature shift [1] was -0.418 °C and the melting temperature shift [2] was -0.788 °C.

UniProt Q9Y3D7 showed a melting temperature shift [1] of 0.0489 °C and a melting temperature shift [2] of 0.114 °C.

With NOLC1 (UniProt Q14978) the melting temperature shift [1] was 3.63 °C.

In the case of SLU7 (UniProt O95391), the melting temperature shift [1] was 1.54 °C.

In the case of BPTF (UniProt Q12830), the melting temperature shift [1] was -0.628 °C and the melting temperature shift [2] was 2.75 °C.

Target TAB1 (UniProt Q15750) has a melting temperature shift [1] of -0.563 °C and a melting temperature shift [2] of 0.459 °C.

With LACTB (UniProt P83111) the melting temperature shift [1] was 0.661 °C and the melting temperature shift [2] was -1.04 °C.

With GET4 (UniProt Q7L5D6) the melting temperature shift [1] was -1.73 °C and the melting temperature shift [2] was 0.425 °C.

SRSF4 (UniProt Q08170) gave a melting temperature shift [1] of -0.666 °C and a melting temperature shift [2] of -1.08 °C.

With SSR4 (UniProt P51571) the melting temperature shift [1] was 1.12 °C and the melting temperature shift [2] was 0.55 °C.

UniProt Q96D31 gave a melting temperature shift [2] of 2.02 °C.

For SEC62 (UniProt Q99442), the melting temperature shift [1] was 0.389 °C and the melting temperature shift [2] was 1.04 °C.

With CCDC117 (UniProt Q8IWD4) the melting temperature shift [1] was -4.64 °C.

S100A16 (UniProt Q96FQ6) gave a melting temperature shift [1] of 0.819 °C and a melting temperature shift [2] of 2.03 °C.

UBAP2L (UniProt Q14157) showed a melting temperature shift [1] of -0.837 °C.

PPP1R13L (UniProt Q8WUF5) gave a melting temperature shift [1] of -1.73 °C and a melting temperature shift [2] of -0.125 °C.

Target MRPS5 (UniProt P82675) has a melting temperature shift [1] of 1.21 °C and a melting temperature shift [2] of -1.39 °C.

In the case of PRPF8 (UniProt Q6P2Q9), the melting temperature shift [1] was -0.174 °C and the melting temperature shift [2] was 0.285 °C.

With UniProt O14543 the melting temperature shift [2] was -1.69 °C.

Work on NDUFA8 (UniProt P51970) yielded a melting temperature shift [1] of 2.46 °C and a melting temperature shift [2] of 0.117 °C.

Work on WNK3 (UniProt Q9BYP7) yielded a melting temperature shift [2] of 1.06 °C.

Work on CNOT1 (UniProt A5YKK6) yielded a melting temperature shift [1] of -0.496 °C and a melting temperature shift [2] of -0.832 °C.

For PAXBP1 (UniProt Q9Y5B6), the melting temperature shift [1] was -0.0923 °C and the melting temperature shift [2] was -0.00835 °C.

For PKCgamma (UniProt P05129), the melting temperature shift [2] was -1.8 °C.

PARS2 (UniProt Q7L3T8) showed a melting temperature shift [1] of -0.733 °C and a melting temperature shift [2] of -0.217 °C.

PSMD1 (UniProt Q99460) showed a melting temperature shift [1] of -0.684 °C and a melting temperature shift [2] of -1.22 °C.

ASPH (UniProt Q12797) was tested, and the melting temperature shift [1] was 1.92 °C and the melting temperature shift [2] was 0.308 °C.

Target TSC22D2 (UniProt O75157) has a melting temperature shift [2] of 1.82 °C.

With STXBP4 (UniProt Q6ZWJ1) the melting temperature shift [2] was -2.76 °C.

VPS37B (UniProt Q9H9H4) showed a melting temperature shift [2] of 0.289 °C.

With UniProt Q8TDX6 the melting temperature shift [2] was -1.59 °C.

Work on GTF2H1 (UniProt P32780) yielded a melting temperature shift [1] of 0.0329 °C.

With NUP35 (UniProt Q8NFH5) the melting temperature shift [1] was 0.559 °C and the melting temperature shift [2] was 0.229 °C.

SPAST (UniProt Q9UBP0) gave a melting temperature shift [1] of -0.84 °C and a melting temperature shift [2] of -0.95 °C.

In the case of GTSE1 (UniProt Q9NYZ3), the melting temperature shift [1] was 1.12 °C.

YIPF5 (UniProt Q969M3) showed a melting temperature shift [1] of 2.44 °C and a melting temperature shift [2] of -2.11 °C.

With RAB13 (UniProt P51153) the melting temperature shift [1] was 0.69 °C and the melting temperature shift [2] was -0.794 °C.

MVB12A (UniProt Q96EY5) gave a melting temperature shift [1] of -1.02 °C and a melting temperature shift [2] of 3.2 °C.

Work on MAT2A (UniProt P31153) yielded a melting temperature shift [1] of -0.642 °C and a melting temperature shift [2] of -2.36 °C.

HNRNPK (UniProt P61978) was tested, and the melting temperature shift [1] was 0.439 °C and the melting temperature shift [2] was -0.165 °C.

STAM (UniProt Q92783) gave a melting temperature shift [1] of -0.923 °C and a melting temperature shift [2] of 0.191 °C.

DCTN5 (UniProt Q9BTE1) was tested, and the melting temperature shift [1] was 0.766 °C and the melting temperature shift [2] was 0.092 °C.

For HSD17B7 (UniProt P56937), the melting temperature shift [2] was 0.749 °C.

For UBAC1 (UniProt Q9BSL1), the melting temperature shift [1] was -0.767 °C and the melting temperature shift [2] was -0.46 °C.

TARBP1 (UniProt Q13395) showed a melting temperature shift [1] of -0.0842 °C and a melting temperature shift [2] of -0.24 °C.

P4HA1 (UniProt P13674) gave a melting temperature shift [1] of 1.05 °C and a melting temperature shift [2] of 0.784 °C.

CHMP2B (UniProt Q9UQN3) gave a melting temperature shift [1] of 0.771 °C and a melting temperature shift [2] of -1.02 °C.

Work on WDR4 (UniProt P57081) yielded a melting temperature shift [1] of 0.679 °C and a melting temperature shift [2] of -0.0605 °C.

Work on MRPL11 (UniProt Q9Y3B7) yielded a melting temperature shift [1] of 0.747 °C and a melting temperature shift [2] of -0.917 °C.

GYG1 (UniProt P46976) gave a melting temperature shift [1] of -2.25 °C and a melting temperature shift [2] of -0.379 °C.

GLRX5 (UniProt Q86SX6) showed a melting temperature shift [1] of 0.499 °C and a melting temperature shift [2] of 1.04 °C.

ARL6 (UniProt Q9H0F7) showed a melting temperature shift [1] of -0.0565 °C.

UniProt O75155 was tested, and the melting temperature shift [1] was -1.29 °C and the melting temperature shift [2] was 0.153 °C.

UniProt Q7L190 was tested, and the melting temperature shift [1] was -1.57 °C.

Work on EMC3 (UniProt Q9P0I2) yielded a melting temperature shift [1] of 0.824 °C and a melting temperature shift [2] of -0.709 °C.

In the case of UniProt Q9H977, the melting temperature shift [1] was -1.22 °C and the melting temperature shift [2] was 0.167 °C.

UniProt Q9H427 showed a melting temperature shift [2] of -0.156 °C.

Work on ZNF598 (UniProt Q86UK7) yielded a melting temperature shift [1] of 0.66 °C and a melting temperature shift [2] of 1.23 °C.

Target UniProt O14965 has a melting temperature shift [1] of -0.425 °C and a melting temperature shift [2] of 0.906 °C.

For UniProt P19105, the melting temperature shift [2] was -0.879 °C.

PRPF31 (UniProt Q8WWY3) showed a melting temperature shift [1] of -1.21 °C and a melting temperature shift [2] of 1.46 °C.

GAK (UniProt O14976) gave a melting temperature shift [1] of 0.651 °C and a melting temperature shift [2] of 0.727 °C.

Target UniProt Q96D05 has a melting temperature shift [1] of 2.49 °C.

With ADAM10 (UniProt O14672) the melting temperature shift [1] was 0.373 °C and the melting temperature shift [2] was -0.978 °C.

Target RRAS2 (UniProt P62070) has a melting temperature shift [1] of 0.794 °C and a melting temperature shift [2] of -1.83 °C.

For UniProt Q8IZT6, the melting temperature shift [1] was -1.77 °C.

UniProt P0DME0 was tested, and the melting temperature shift [2] was 1.75 °C.

UniProt P50406 showed a melting temperature shift [2] of -0.489 °C.

UniProt Q07352 was tested, and the melting temperature shift [1] was -1.41 °C and the melting temperature shift [2] was -0.868 °C.

PGLS (UniProt O95336) gave a melting temperature shift [1] of -1.18 °C and a melting temperature shift [2] of 0.691 °C.

Target NMNAT1 (UniProt Q9HAN9) has a melting temperature shift [1] of -1.67 °C.

With VIMP (UniProt Q9BQE4) the melting temperature shift [1] was 3.05 °C.

Target MEPCE (UniProt Q7L2J0) has a melting temperature shift [1] of -0.797 °C and a melting temperature shift [2] of 0.593 °C.

COMMD3 (UniProt Q9UBI1) showed a melting temperature shift [1] of -0.0505 °C and a melting temperature shift [2] of 0.0424 °C.

STXBP1 (UniProt P61764) showed a melting temperature shift [1] of 1.9 °C and a melting temperature shift [2] of 0.0949 °C.

MRPL55 (UniProt Q7Z7F7) showed a melting temperature shift [1] of -3.39 °C.

SNRPB2 (UniProt P08579) was tested, and the melting temperature shift [1] was 0.525 °C and the melting temperature shift [2] was 0.526 °C.

ZNF622 (UniProt Q969S3) gave a melting temperature shift [1] of 0.173 °C and a melting temperature shift [2] of -1.01 °C.

With DDX3X (UniProt O00571) the melting temperature shift [1] was 0.339 °C and the melting temperature shift [2] was 0.553 °C.

In the case of TUBB6 (UniProt Q9BUF5), the melting temperature shift [1] was -0.979 °C and the melting temperature shift [2] was -1.47 °C.
